Values from PubChem BioAssay AID1259254 (NCATS, 2017).
Shown is a random part of about 59,000 reagents tested. Of all reagents, about 1,550 (2.6%) were called active. 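G2 share is only a proxy for re-replication; each gene was hit by three separate siRNAs, and active genes were retested.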 Unmarked entries are inactive. The numbers tell different reagents against one gene apart. Further read-outs or replicates are left out here. The record does not give: the amount of reagent.

- Screen: 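Genome-wide screen for genes that prevent DNA re-replication in cancer cells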 (primary screen)
- Cell system: human HCT116 colorectal cancer cells
- Knock-down reagent: single siRNA against human genes
- Time to read-out: 3 days
- Detection: 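Nuclei stained with Hoechst and imaged; cell-cycle phase assigned by DNA content; G2 share scaled per plate, non-targeting siRNA 0%, GMNN siRNA 100%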
- Direction: G2 robust z-score and G2 cells, % of GMNN control: higher = more G2 cells, more excess DNA replication
- Active means: 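An siRNA counts as active if its G2 robust z-score lies at least 5 MADs above the screen median; here such calls match roughly 38% of GMNN control or more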

gene symbol,reagent no.,G2 robust z-score,"G2 cells, % of GMNN control"
TMC3 (transmembrane channel like 3),1,-0.175,1.74
TMC3 (transmembrane channel like 3),2,0.346,5.4
TMC3 (transmembrane channel like 3),3,-0.426,-0.0316
IVL (involucrin),1,0.448,6.12
IVL (involucrin),2,0.793,8.55
IVL (involucrin),3,0.506,6.53
COMMD4 (COMM domain containing 4),1,1.21,11.5
COMMD4 (COMM domain containing 4),2,0.703,7.91
COMMD4 (COMM domain containing 4),3,1.51,13.6
TLCD2 (TLC domain containing 2),1,-0.105,2.23
TLCD2 (TLC domain containing 2),2,-0.71,-2.03
TLCD2 (TLC domain containing 2),3,-0.799,-2.66
"PMEPA1 (prostate transmembrane protein, androgen induced 1)",1,0.178,4.22
"PMEPA1 (prostate transmembrane protein, androgen induced 1)",2,1.12,10.9
"PMEPA1 (prostate transmembrane protein, androgen induced 1)",3,0.653,7.56

The list goes on, starting with the last 2 of the part before.
gene symbol,reagent no.,G2 robust z-score,"G2 cells, % of GMNN control"
"PMEPA1 (prostate transmembrane protein, androgen induced 1)",2,1.12,10.9
"PMEPA1 (prostate transmembrane protein, androgen induced 1)",3,0.653,7.56
"ESPL1 (extra spindle pole bodies like 1, separase)",1,11.1 (active),81
"ESPL1 (extra spindle pole bodies like 1, separase)",2,10.5 (active),77
"ESPL1 (extra spindle pole bodies like 1, separase)",3,16.3 (active),118
HOXA9 (homeobox A9),1,-1.25,-5.82
HOXA9 (homeobox A9),2,1.04,10.3
HOXA9 (homeobox A9),3,0.00974,3.04
PLAAT1 (phospholipase A and acyltransferase 1),1,0.192,4.32
PLAAT1 (phospholipase A and acyltransferase 1),2,0.118,3.8
PLAAT1 (phospholipase A and acyltransferase 1),3,1.75,15.3
LOC440084,1,0.569,6.97
LOC440084,2,-0.459,-0.263
LOC440084,3,0.638,7.46
SLC22A15,1,-0.183,1.68
SLC22A15,2,-1.03,-4.26
SLC22A15,3,6.46 (active),48.4
